# Measurements published in the supplement of paper PMC10849652.
# Amino acid sequences for entries named in this document (tags omitted). A change or cut given only in a name is not applied to a line headed by its entry.
# UniProt Q9H6Z4: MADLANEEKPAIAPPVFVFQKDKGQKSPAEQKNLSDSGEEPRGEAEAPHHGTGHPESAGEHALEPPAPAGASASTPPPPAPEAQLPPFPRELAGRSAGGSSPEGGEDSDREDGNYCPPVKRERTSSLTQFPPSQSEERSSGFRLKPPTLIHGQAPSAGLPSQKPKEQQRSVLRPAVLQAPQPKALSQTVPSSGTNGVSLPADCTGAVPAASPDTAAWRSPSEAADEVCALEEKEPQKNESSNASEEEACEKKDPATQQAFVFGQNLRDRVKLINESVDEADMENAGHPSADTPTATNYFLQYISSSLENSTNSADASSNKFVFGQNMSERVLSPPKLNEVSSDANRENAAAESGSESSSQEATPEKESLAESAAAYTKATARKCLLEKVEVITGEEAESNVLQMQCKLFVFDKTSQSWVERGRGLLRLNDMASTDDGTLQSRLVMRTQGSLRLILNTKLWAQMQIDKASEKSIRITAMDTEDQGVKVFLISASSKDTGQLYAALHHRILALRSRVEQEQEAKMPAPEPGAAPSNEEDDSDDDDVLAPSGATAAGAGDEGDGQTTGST
# UniProt Q92696: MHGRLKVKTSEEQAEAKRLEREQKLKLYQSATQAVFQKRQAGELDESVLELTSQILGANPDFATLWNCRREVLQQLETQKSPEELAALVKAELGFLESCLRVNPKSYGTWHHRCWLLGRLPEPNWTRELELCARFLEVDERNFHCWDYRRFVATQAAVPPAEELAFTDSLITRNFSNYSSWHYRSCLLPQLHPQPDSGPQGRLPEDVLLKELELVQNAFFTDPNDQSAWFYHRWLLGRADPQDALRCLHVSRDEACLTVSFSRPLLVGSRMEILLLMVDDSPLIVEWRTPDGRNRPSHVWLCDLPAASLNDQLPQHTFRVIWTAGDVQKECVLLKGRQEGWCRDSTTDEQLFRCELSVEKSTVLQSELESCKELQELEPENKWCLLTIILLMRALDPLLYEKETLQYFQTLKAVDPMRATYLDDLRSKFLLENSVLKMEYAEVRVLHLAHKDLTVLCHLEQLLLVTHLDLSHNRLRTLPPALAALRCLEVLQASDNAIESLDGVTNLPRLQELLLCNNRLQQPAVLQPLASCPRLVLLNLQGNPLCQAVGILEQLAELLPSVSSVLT
# UniProt P54136: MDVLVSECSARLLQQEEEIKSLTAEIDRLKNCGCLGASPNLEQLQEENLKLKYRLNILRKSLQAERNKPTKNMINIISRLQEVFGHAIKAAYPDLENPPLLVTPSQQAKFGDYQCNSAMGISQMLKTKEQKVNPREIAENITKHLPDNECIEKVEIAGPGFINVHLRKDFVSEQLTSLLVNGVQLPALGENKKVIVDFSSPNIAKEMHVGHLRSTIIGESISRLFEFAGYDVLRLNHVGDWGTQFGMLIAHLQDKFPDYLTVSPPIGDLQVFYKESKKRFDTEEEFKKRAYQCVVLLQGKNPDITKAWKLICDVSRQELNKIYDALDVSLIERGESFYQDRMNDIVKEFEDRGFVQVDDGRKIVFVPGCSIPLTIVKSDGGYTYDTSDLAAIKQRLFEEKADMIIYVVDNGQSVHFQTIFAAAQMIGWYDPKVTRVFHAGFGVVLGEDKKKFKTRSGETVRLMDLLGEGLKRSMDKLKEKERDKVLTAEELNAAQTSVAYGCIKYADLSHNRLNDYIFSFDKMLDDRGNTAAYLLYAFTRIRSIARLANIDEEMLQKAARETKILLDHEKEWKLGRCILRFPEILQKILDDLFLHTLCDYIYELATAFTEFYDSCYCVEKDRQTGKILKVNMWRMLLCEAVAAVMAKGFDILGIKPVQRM
# UniProt O60518: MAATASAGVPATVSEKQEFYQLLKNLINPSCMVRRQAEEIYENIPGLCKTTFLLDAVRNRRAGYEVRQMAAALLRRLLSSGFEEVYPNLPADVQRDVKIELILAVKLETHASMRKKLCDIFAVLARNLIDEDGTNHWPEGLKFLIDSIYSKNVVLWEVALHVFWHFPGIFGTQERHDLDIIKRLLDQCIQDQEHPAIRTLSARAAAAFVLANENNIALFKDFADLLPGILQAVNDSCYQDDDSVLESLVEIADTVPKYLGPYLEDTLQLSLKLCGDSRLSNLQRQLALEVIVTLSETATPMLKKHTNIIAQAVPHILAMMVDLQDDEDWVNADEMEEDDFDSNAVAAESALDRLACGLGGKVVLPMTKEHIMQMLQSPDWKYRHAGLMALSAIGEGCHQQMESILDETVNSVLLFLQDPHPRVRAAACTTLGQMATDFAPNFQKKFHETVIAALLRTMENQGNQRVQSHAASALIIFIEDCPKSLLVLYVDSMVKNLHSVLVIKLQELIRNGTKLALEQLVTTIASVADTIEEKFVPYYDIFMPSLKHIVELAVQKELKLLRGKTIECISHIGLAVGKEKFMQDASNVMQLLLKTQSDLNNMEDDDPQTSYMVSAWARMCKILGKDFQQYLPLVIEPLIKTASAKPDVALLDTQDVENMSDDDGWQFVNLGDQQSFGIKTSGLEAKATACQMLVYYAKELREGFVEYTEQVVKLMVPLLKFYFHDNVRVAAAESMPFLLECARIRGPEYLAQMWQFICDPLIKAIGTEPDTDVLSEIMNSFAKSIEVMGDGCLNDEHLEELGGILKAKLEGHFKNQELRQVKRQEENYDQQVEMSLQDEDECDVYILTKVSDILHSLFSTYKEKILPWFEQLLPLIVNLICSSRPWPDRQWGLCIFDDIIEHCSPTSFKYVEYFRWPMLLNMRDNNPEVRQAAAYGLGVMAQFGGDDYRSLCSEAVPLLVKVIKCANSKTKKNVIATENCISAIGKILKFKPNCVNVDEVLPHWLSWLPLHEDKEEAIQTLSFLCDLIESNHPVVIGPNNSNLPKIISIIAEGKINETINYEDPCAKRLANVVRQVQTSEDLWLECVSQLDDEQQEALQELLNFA
# UniProt P78406: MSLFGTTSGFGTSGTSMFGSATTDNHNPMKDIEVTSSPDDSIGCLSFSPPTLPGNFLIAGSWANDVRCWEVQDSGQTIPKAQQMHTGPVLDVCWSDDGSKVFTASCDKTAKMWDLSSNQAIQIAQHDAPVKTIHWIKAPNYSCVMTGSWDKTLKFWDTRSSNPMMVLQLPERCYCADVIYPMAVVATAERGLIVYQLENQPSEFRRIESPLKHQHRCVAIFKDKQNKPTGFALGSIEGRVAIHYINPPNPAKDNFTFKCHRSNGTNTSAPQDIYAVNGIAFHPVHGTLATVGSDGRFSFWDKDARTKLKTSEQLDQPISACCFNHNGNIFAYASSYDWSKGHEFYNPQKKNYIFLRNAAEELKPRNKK
# UniProt P49756, whole entry, looked up: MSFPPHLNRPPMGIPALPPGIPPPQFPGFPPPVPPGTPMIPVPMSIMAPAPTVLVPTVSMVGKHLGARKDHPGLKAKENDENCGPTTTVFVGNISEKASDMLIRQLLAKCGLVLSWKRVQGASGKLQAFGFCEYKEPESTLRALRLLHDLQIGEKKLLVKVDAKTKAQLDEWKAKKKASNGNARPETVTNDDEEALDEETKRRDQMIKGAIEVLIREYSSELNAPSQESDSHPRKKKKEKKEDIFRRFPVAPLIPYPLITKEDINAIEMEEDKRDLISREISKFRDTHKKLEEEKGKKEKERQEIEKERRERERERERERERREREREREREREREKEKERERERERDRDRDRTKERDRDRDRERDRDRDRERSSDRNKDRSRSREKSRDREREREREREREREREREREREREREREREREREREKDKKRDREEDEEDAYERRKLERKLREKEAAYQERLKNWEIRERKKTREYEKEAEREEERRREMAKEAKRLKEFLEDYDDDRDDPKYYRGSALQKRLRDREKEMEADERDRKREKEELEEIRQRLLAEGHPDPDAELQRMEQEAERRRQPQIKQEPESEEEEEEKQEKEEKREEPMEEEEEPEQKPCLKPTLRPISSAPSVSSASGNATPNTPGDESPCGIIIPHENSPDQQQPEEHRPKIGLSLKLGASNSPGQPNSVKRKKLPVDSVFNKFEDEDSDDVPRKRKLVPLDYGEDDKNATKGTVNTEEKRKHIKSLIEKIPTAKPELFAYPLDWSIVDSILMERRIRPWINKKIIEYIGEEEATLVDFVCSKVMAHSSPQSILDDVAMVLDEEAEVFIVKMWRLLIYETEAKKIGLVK
# UniProt P11234: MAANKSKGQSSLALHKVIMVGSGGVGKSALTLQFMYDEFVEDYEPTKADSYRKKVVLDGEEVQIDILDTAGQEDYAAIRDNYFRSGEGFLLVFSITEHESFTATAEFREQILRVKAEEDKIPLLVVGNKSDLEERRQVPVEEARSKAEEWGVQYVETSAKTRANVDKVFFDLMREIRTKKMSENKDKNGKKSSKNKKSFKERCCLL
# UniProt P54725: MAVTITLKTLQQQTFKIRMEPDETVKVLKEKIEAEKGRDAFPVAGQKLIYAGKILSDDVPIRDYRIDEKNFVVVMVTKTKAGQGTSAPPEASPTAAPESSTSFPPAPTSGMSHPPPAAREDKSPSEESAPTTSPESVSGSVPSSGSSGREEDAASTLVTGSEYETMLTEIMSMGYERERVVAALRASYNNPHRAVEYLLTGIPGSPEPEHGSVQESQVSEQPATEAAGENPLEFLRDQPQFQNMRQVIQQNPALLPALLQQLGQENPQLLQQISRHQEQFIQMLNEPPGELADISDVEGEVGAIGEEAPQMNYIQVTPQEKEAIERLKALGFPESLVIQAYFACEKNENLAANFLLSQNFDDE
# UniProt Q9H2M9: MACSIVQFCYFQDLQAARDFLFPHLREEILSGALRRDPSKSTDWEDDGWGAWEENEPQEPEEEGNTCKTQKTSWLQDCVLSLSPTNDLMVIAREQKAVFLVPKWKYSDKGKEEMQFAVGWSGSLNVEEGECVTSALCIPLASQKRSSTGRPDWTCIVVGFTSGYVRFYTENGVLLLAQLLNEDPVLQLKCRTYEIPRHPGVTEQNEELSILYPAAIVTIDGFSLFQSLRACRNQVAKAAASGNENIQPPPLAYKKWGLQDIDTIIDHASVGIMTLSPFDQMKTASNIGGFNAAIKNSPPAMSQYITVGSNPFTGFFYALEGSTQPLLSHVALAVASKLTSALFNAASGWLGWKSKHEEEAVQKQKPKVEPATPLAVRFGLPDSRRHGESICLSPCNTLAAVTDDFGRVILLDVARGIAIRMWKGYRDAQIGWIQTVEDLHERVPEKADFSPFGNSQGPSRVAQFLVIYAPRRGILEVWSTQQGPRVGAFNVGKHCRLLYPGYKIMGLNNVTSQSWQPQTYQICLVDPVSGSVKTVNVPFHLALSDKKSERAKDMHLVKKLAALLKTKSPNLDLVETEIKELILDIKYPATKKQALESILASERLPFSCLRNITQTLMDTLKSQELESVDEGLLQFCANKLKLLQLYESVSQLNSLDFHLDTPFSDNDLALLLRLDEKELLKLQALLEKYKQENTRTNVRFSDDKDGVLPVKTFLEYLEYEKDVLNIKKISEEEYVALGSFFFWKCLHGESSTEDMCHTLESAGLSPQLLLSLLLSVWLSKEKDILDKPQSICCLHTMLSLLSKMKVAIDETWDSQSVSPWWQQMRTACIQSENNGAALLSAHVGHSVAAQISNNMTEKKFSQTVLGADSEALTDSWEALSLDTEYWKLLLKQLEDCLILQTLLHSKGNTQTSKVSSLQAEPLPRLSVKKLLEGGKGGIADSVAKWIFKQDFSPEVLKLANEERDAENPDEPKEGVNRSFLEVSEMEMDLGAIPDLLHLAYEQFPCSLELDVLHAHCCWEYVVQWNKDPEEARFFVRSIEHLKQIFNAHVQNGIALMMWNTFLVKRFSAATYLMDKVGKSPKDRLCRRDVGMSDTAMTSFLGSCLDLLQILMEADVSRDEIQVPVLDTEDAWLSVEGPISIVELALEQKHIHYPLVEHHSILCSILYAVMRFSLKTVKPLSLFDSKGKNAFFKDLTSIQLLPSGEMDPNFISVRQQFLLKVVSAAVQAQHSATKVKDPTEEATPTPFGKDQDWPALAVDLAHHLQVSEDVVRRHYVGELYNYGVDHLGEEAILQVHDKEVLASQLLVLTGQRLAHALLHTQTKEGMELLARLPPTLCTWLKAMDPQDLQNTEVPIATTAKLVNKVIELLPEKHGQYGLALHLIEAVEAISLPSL
# UniProt Q15771: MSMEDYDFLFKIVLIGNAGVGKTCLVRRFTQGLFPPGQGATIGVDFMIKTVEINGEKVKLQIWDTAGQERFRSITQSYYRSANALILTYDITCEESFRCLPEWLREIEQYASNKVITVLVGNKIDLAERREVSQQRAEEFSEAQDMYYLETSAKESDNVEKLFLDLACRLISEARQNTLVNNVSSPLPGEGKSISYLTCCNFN
# UniProt P20340: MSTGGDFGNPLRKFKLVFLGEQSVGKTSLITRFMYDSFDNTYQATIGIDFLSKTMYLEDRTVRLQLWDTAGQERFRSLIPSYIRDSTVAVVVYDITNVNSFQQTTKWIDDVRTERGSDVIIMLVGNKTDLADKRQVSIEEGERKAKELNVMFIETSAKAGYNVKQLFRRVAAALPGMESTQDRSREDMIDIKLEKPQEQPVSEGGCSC
# Some of the results follow.
# Tests used:
# Test in all cases: log2 fold change, soluble protein after heating vs DMSO (PISA); higher = thermal stabilisation; K562 cells, 10 uM, 30 min; active = over 0.2 and 3.5 SD of the protein, either way, in both replicates (recomputed)
# [1] = compound: COC1=CC=C(C=C1)CN2C=CC3=C2C=C(C=C3)C(=O)NO
# Procedure, shortened: (§1)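 K562 cells (2×10^6 cells/mL) were treated with 10 μM compound for 30 min, and aliquots were heated for 3 min over 48°C-58°C. Pooled aliquots were extracted in PBS with 0.5% NP-40 at 4°C, and the supernatant after 21,000xg for 90 min was measured by TMTpro 16plex LC-MS/MS with channel sums equalised. Reported thermal stability, relative to control samples and from duplicates, is a log2 fold change.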
# filanesib = compound: CON(C)C(=O)N1N=C(c2cc(F)ccc2F)S[C@@]1(CCCN)c1ccccc1 [filanesib]
# Procedure, shortened: as §1
# zotarolimus = compound: CO[C@H]1C[C@@H]2CC[C@@H](C)[C@@](O)(O2)C(=O)C(=O)N2CCCC[C@H]2C(=O)O[C@H]([C@H](C)C[C@@H]2CC[C@H](n3cnnn3)[C@H](OC)C2)CC(=O)[C@H](C)/C=C(\C)[C@@H](O)[C@@H](OC)C(=O)[C@H](C)C[C@H](C)/C=C/C=C/C=C/1C [zotarolimus]
# Procedure, shortened: as §1
# idasanutlin = compound: COc1cc(C(=O)O)ccc1NC(=O)[C@@H]1N[C@@H](CC(C)(C)C)[C@](C#N)(c2ccc(Cl)cc2F)[C@H]1c1cccc(Cl)c1F [idasanutlin]
# Procedure, shortened: as §1
# alisertib = compound: COc1cc(Nc2ncc3c(n2)-c2ccc(Cl)cc2C(c2c(F)cccc2OC)=NC3)ccc1C(=O)O [alisertib]
# Procedure, shortened: as §1
# [2] = compound: COc1cc2nc(-c3cc(F)ccc3O)nc(N[C@@H]3CNC[C@H]3C(C)(C)O)c2cc1OC
# Procedure, shortened: as §1
# gefitinib = compound: COc1cc2ncnc(Nc3ccc(F)c(Cl)c3)c2cc1OCCCN1CCOCC1 [gefitinib]
# Procedure, shortened: as §1
# [3] = compound: COc1cccc2cc(-c3nc([C@H]4CC[C@H](C(=O)O)CC4)n4ncnc(N)c34)[nH]c12
# Procedure, shortened: as §1
# lapatinib = compound: CS(=O)(=O)CCNCc1ccc(-c2ccc3ncnc(Nc4ccc(OCc5cccc(F)c5)c(Cl)c4)c3c2)o1 [lapatinib]
# Procedure, shortened: as §1
# pictilisib = compound: CS(=O)(=O)N1CCN(Cc2cc3nc(-c4cccc5[nH]ncc45)nc(N4CCOCC4)c3s2)CC1 [pictilisib]
# Procedure, shortened: as §1
Target,log2 fold change [1],log2 fold change (filanesib),log2 fold change (zotarolimus),log2 fold change (idasanutlin),log2 fold change (alisertib),log2 fold change [2],log2 fold change (gefitinib),log2 fold change [3],log2 fold change (lapatinib),log2 fold change (pictilisib)
RAN (UniProt P62826),inactive: -0.068,inactive: -0.011,inactive: -0.024,inactive: 0.011,inactive: -0.013,inactive: 0.02,inactive: -0.011,inactive: 0.045,inactive: -0.086,inactive: 0.007
RANBP3 (UniProt Q9H6Z4),inactive: 0.051,inactive: -0.041,inactive: 0.007,inactive: -0.042,inactive: -0.058,inactive: -0.042,inactive: -0.011,inactive: 0.043,inactive: 0.007,inactive: -0.016
RAB27B (UniProt O00194),inactive: -0.016,inactive: 0.029,inactive: -0.087,inactive: 0.096,inactive: 0.111,inactive: -0.031,inactive: 0.038,inactive: -0.109,inactive: -0.004,inactive: -0.092
RALY (UniProt Q9UKM9),inactive: -0.038,inactive: 0.216,inactive: 0.055,active: 0.72,inactive: 0.041,inactive: -0.152,inactive: -0.099,inactive: -0.148,inactive: 0.22,inactive: -0.02
RABGGTA (UniProt Q92696),inactive: 0.019,inactive: -0.013,inactive: 0.022,inactive: -0.019,inactive: 0.016,inactive: -0.007,inactive: 0.041,inactive: 0.017,inactive: 0.002,inactive: 0.067
RBBP7 isoform 2 (UniProt Q16576),inactive: -0.042,inactive: -0.068,inactive: 0.015,inactive: -0.02,inactive: 0.003,inactive: 0.029,inactive: -0.006,inactive: 0.056,inactive: -0.046,inactive: 0.011
RAB4B isoform 2 (UniProt P61018),inactive: -0.079,inactive: 0.001,inactive: 0.003,inactive: -0.077,inactive: -0.033,inactive: 0.026,inactive: 0.048,inactive: 0.037,inactive: 0.004,inactive: 0.057
RARS (UniProt P54136),inactive: -0.045,inactive: 0.079,inactive: 0.049,inactive: 0.052,inactive: -0.059,inactive: -0.032,inactive: -0.025,inactive: -0.203,inactive: -0.008,inactive: -0.07
RAB1A (UniProt P62820),inactive: -0.035,inactive: -0.092,inactive: -0.028,inactive: -0.017,inactive: -0.07,inactive: -0.002,inactive: 0.008,inactive: 0.033,inactive: -0.036,inactive: -0.001
RBBP4 (UniProt Q09028),inactive: 0.112,inactive: 0.021,inactive: 0.002,inactive: 0.002,inactive: -0.037,inactive: -0.031,inactive: -0.002,inactive: 0.045,inactive: -0.021,inactive: 0.026
RAPGEF4 (UniProt Q8WZA2),inactive: 0.549,inactive: 0.053,inactive: -0.078,inactive: 0.021,inactive: -0.145,–,–,inactive: 0.187,–,–
RAB43 (UniProt Q86YS6),inactive: -0.005,inactive: 0.16,inactive: -0.052,inactive: -0.013,inactive: -0.109,inactive: 0.061,inactive: 0.135,inactive: 0.095,inactive: -0.075,inactive: 0.076
RANBP6 (UniProt O60518),inactive: -0.039,inactive: -0.243,–,–,–,inactive: 0.11,–,–,inactive: 0.166,–
RAF1 isoform 2 (UniProt P04049),inactive: 0.035,inactive: 0.085,inactive: -0.024,inactive: -0.102,inactive: 0.139,inactive: -0.246,–,inactive: -0.067,inactive: 0.051,inactive: 0.207
RAPGEF6 isoform 4 (UniProt Q8TEU7),inactive: -0.063,inactive: -0.123,inactive: 0.168,inactive: 0.055,inactive: 0.01,–,inactive: 0.121,inactive: -0.403,–,inactive: -0.196
RAP1GAP isoform 4 (UniProt P47736),inactive: -0.237,inactive: -0.106,inactive: 0.058,inactive: 0.112,inactive: 0.04,inactive: -0.152,inactive: 0.023,inactive: -0.183,inactive: 0.05,inactive: 0.053
RAE1 (UniProt P78406),inactive: 0.107,inactive: 0.131,inactive: 0.036,inactive: 0.05,inactive: 0.025,inactive: -0.013,inactive: 0.048,inactive: -0.143,inactive: 0.053,inactive: -0.04
RAB11A (UniProt P62491),inactive: 0.096,inactive: 0.009,inactive: -0.052,inactive: 0.022,inactive: -0.031,inactive: 0.079,inactive: -0.017,inactive: -0.025,inactive: -0.112,inactive: 0.157
RBM25 (UniProt P49756),active: 0.285,inactive: 0.112,inactive: 0.022,inactive: 0.022,inactive: -0.044,inactive: -0.035,inactive: 0.001,inactive: 0.043,inactive: -0.024,inactive: 0.052
RBM27 (UniProt Q9P2N5),inactive: -0.025,inactive: 0.094,inactive: 0.027,inactive: 0.075,inactive: 0.02,inactive: -0.058,inactive: 0.057,inactive: 0.018,inactive: 0.051,inactive: -0.08
"RAPGEF2, A0A2R8YGD3",inactive: -0.108,inactive: -0.042,inactive: -0.153,inactive: -0.2,inactive: 0.372,inactive: 0.017,–,inactive: -0.025,inactive: 0.056,inactive: 0.086
RBBP7 (UniProt Q16576),inactive: -0.008,inactive: -0.062,–,inactive: -0.025,inactive: 0.002,inactive: 0.161,inactive: 0.036,inactive: 0.026,inactive: -0.032,–
RALB isoform 2 (UniProt P11234),inactive: 0.023,inactive: 0.011,inactive: -0.034,inactive: -0.008,inactive: -0.075,inactive: 0.008,inactive: 0.05,inactive: 0.007,inactive: -0.008,inactive: 0.068
RAD23A (UniProt P54725),inactive: -0.078,inactive: 0.021,inactive: -0.007,inactive: 0.092,inactive: -0.118,inactive: -0.033,inactive: 0.015,inactive: 0.047,inactive: -0.024,inactive: -0.002
RAB40C (UniProt Q96S21),inactive: -0.055,inactive: -0.14,–,inactive: 0.068,inactive: 0.012,inactive: -0.099,inactive: -0.388,inactive: 0.357,inactive: 0.001,inactive: 0.056
RAB3GAP2 (UniProt Q9H2M9),inactive: 0,inactive: 0.049,inactive: 0.101,inactive: 0.01,inactive: -0.056,inactive: 0.009,inactive: 0.017,inactive: -0.103,inactive: 0.038,inactive: -0.027
RASA2 (UniProt Q15283),inactive: -0.372,inactive: -0.062,inactive: -0.221,inactive: 0.233,inactive: -0.259,inactive: 0.45,–,inactive: -0.306,inactive: -0.37,inactive: -0.208
RAB30 (UniProt Q15771),inactive: 0.044,–,inactive: 0.153,inactive: 0.044,inactive: -0.085,inactive: 0.047,inactive: 0.087,inactive: 0.079,inactive: 0.021,inactive: -0.074
RAB11B (UniProt Q15907),inactive: -0.035,inactive: 0.019,inactive: -0.058,inactive: 0.025,inactive: -0.075,inactive: 0.048,inactive: 0.045,inactive: 0.065,inactive: -0.008,inactive: -0.01
RAB6A isoform 2 (UniProt P20340),inactive: -0.083,inactive: -0.026,inactive: -0.028,inactive: -0.046,inactive: 0.004,inactive: 0.047,inactive: 0.015,inactive: 0.038,inactive: -0.009,inactive: 0.033

# In a second layout: entries from further up
Target | log2 fold change [1] | log2 fold change (filanesib) | log2 fold change (zotarolimus) | log2 fold change (idasanutlin) | log2 fold change (alisertib) | log2 fold change [2] | log2 fold change (gefitinib) | log2 fold change [3] | log2 fold change (lapatinib) | log2 fold change (pictilisib)
RAN (UniProt P62826) | inactive: -0.068 | inactive: -0.011 | inactive: -0.024 | inactive: 0.011 | inactive: -0.013 | inactive: 0.02 | inactive: -0.011 | inactive: 0.045 | inactive: -0.086 | inactive: 0.007
RANBP3 (UniProt Q9H6Z4) | inactive: 0.051 | inactive: -0.041 | inactive: 0.007 | inactive: -0.042 | inactive: -0.058 | inactive: -0.042 | inactive: -0.011 | inactive: 0.043 | inactive: 0.007 | inactive: -0.016
RAB43 (UniProt Q86YS6) | inactive: -0.005 | inactive: 0.16 | inactive: -0.052 | inactive: -0.013 | inactive: -0.109 | inactive: 0.061 | inactive: 0.135 | inactive: 0.095 | inactive: -0.075 | inactive: 0.076
RANBP6 (UniProt O60518) | inactive: -0.039 | inactive: -0.243 | – | – | – | inactive: 0.11 | – | – | inactive: 0.166 | –
RAE1 (UniProt P78406) | inactive: 0.107 | inactive: 0.131 | inactive: 0.036 | inactive: 0.05 | inactive: 0.025 | inactive: -0.013 | inactive: 0.048 | inactive: -0.143 | inactive: 0.053 | inactive: -0.04
RAB40C (UniProt Q96S21) | inactive: -0.055 | inactive: -0.14 | – | inactive: 0.068 | inactive: 0.012 | inactive: -0.099 | inactive: -0.388 | inactive: 0.357 | inactive: 0.001 | inactive: 0.056
